Data published in paper PMC7057099.
No constants are given. Whether binding was seen depends on the method and setting. In cells and extracts the contact can be indirect. Some results given as binding are weak or reduced against the parent protein; the word gives no strength. Where a sequence is shown, tags or fusion partners need not be part of it.

Sequences of proteins named here, by UniProt entry; tags and fusion partners are left off.
UniProt P43694: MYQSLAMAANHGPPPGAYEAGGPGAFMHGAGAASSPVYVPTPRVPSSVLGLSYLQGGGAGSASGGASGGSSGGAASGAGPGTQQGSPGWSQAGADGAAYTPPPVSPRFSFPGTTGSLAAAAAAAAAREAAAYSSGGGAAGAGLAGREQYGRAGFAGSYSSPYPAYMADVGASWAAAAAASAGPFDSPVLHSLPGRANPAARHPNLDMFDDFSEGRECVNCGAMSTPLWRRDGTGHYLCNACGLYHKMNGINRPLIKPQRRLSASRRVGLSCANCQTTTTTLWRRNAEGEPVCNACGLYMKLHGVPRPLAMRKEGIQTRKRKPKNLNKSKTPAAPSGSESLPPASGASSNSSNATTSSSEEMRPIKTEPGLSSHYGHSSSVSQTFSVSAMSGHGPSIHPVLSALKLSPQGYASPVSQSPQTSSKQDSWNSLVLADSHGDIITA

B1: ZFPM2 (FOG2) p.V538I variant, Myc-DDK-tagged (protein, UniProt Q8WW38-1 1-1151)
chain: MSRRKQSKPRQIKRPLEDAIEDEEEECPSEETDIISKGDFPLEESFSTEFGPENLSCEEVEYFCNKGDDEGIQETAESDGDTQSEKPGQPGVETDDWDGPGELEVFQKDGERKIQSRQQLPVGTTWGPFPGKMDLNNNSLKTKAQVPMVLTAGPKWLLDVTWQGVEDNKNNCIVYSKGGQLWCTTTKAISEGEELIAFVVDFDSRLQAASQMTLTEGMYPARLLDSIQLLPQQAAMASILPTAIVNKDIFPCKSCGIWYRSERNLQAHLMYYCSGRQREAAPVSEENEDSAHQISSLCPFPQCTKSFSNARALEMHLNSHSGVKMEEFLPPGASLKCTVCSYTADSVINFHQHLFSHLTQAAFRCNHCHFGFQTQRELLQHQELHVPSGKLPRESDMEHSPSATEDSLQPATDLLTRSELPQSQKAMQTKDASSDTELDKCEKKTQLFLTNQRPEIQPTTNKQSFSYTKIKSEPSSPRLASSPVQPNIGPSFPVGPFLSQFSFPQDITMVPQASEILAKMSELVHRRLRHGSSSYPPIIYSPLMPKGATCFECNITFNNLDNYLVHKKHYCSSRWQQMAKSPEFPSVSEKMPEALSPNTGQTSINLLNPAAHSADPENPLLQTSCINSSTVLDLIGPNGKGHDKDFSTQTKKLSTSSNNDDKINGKPVDVKNPSVPLVDGESDPNKTTCEACNITFSRHETYMVHKQYYCATRHDPPLKRSASNKVPAMQRTMRTRKRRKMYEMCLPEQEQRPPLVQQRFLDVANLNNPCTSTQEPTEGLGECYHPRCDIFPGIVSKHLETSLTINKCVPVSKCDTTHSSVSCLEMDVPIDLSKKCLSQSERTTTSPKRLLDYHECTVCKISFNKVENYLAHKQNFCPVTAHQRNDLGQLDGKVFPNPESERNSPDVSYERSIIKCEKNGNLKQPSPNGNLFSSHLATLQGLKVFSEAAQLIATKEENRHLFLPQCLYPGAIKKAKGADQLSPYYGIKPSDYISGSLVIHNTDIEQSRNAENESPKGQASSNGCAALKKDSLPLLPKNRGMVIVNGGLKQDERPAANPQQENISQNPQHEDDHKSPSWISENPLAANENVSPGIPSAEEQLSSIAKGVNGSSQAPTSGKYCRLCDIQFNNLSNFITHKKFYCSSHAAEHVK
B2: ZFPM2 (FOG2) p.E419K variant, Myc-DDK-tagged (protein, UniProt Q8WW38-1 1-1151)
chain: MSRRKQSKPRQIKRPLEDAIEDEEEECPSEETDIISKGDFPLEESFSTEFGPENLSCEEVEYFCNKGDDEGIQETAESDGDTQSEKPGQPGVETDDWDGPGELEVFQKDGERKIQSRQQLPVGTTWGPFPGKMDLNNNSLKTKAQVPMVLTAGPKWLLDVTWQGVEDNKNNCIVYSKGGQLWCTTTKAISEGEELIAFVVDFDSRLQAASQMTLTEGMYPARLLDSIQLLPQQAAMASILPTAIVNKDIFPCKSCGIWYRSERNLQAHLMYYCSGRQREAAPVSEENEDSAHQISSLCPFPQCTKSFSNARALEMHLNSHSGVKMEEFLPPGASLKCTVCSYTADSVINFHQHLFSHLTQAAFRCNHCHFGFQTQRELLQHQELHVPSGKLPRESDMEHSPSATEDSLQPATDLLTRSKLPQSQKAMQTKDASSDTELDKCEKKTQLFLTNQRPEIQPTTNKQSFSYTKIKSEPSSPRLASSPVQPNIGPSFPVGPFLSQFSFPQDITMVPQASEILAKMSELVHRRLRHGSSSYPPVIYSPLMPKGATCFECNITFNNLDNYLVHKKHYCSSRWQQMAKSPEFPSVSEKMPEALSPNTGQTSINLLNPAAHSADPENPLLQTSCINSSTVLDLIGPNGKGHDKDFSTQTKKLSTSSNNDDKINGKPVDVKNPSVPLVDGESDPNKTTCEACNITFSRHETYMVHKQYYCATRHDPPLKRSASNKVPAMQRTMRTRKRRKMYEMCLPEQEQRPPLVQQRFLDVANLNNPCTSTQEPTEGLGECYHPRCDIFPGIVSKHLETSLTINKCVPVSKCDTTHSSVSCLEMDVPIDLSKKCLSQSERTTTSPKRLLDYHECTVCKISFNKVENYLAHKQNFCPVTAHQRNDLGQLDGKVFPNPESERNSPDVSYERSIIKCEKNGNLKQPSPNGNLFSSHLATLQGLKVFSEAAQLIATKEENRHLFLPQCLYPGAIKKAKGADQLSPYYGIKPSDYISGSLVIHNTDIEQSRNAENESPKGQASSNGCAALKKDSLPLLPKNRGMVIVNGGLKQDERPAANPQQENISQNPQHEDDHKSPSWISENPLAANENVSPGIPSAEEQLSSIAKGVNGSSQAPTSGKYCRLCDIQFNNLSNFITHKKFYCSSHAAEHVK
B3: ZFPM2 (FOG2) p.D98N variant, Myc-DDK-tagged (protein, UniProt Q8WW38-1 1-1151)
chain: MSRRKQSKPRQIKRPLEDAIEDEEEECPSEETDIISKGDFPLEESFSTEFGPENLSCEEVEYFCNKGDDEGIQETAESDGDTQSEKPGQPGVETDDWNGPGELEVFQKDGERKIQSRQQLPVGTTWGPFPGKMDLNNNSLKTKAQVPMVLTAGPKWLLDVTWQGVEDNKNNCIVYSKGGQLWCTTTKAISEGEELIAFVVDFDSRLQAASQMTLTEGMYPARLLDSIQLLPQQAAMASILPTAIVNKDIFPCKSCGIWYRSERNLQAHLMYYCSGRQREAAPVSEENEDSAHQISSLCPFPQCTKSFSNARALEMHLNSHSGVKMEEFLPPGASLKCTVCSYTADSVINFHQHLFSHLTQAAFRCNHCHFGFQTQRELLQHQELHVPSGKLPRESDMEHSPSATEDSLQPATDLLTRSELPQSQKAMQTKDASSDTELDKCEKKTQLFLTNQRPEIQPTTNKQSFSYTKIKSEPSSPRLASSPVQPNIGPSFPVGPFLSQFSFPQDITMVPQASEILAKMSELVHRRLRHGSSSYPPVIYSPLMPKGATCFECNITFNNLDNYLVHKKHYCSSRWQQMAKSPEFPSVSEKMPEALSPNTGQTSINLLNPAAHSADPENPLLQTSCINSSTVLDLIGPNGKGHDKDFSTQTKKLSTSSNNDDKINGKPVDVKNPSVPLVDGESDPNKTTCEACNITFSRHETYMVHKQYYCATRHDPPLKRSASNKVPAMQRTMRTRKRRKMYEMCLPEQEQRPPLVQQRFLDVANLNNPCTSTQEPTEGLGECYHPRCDIFPGIVSKHLETSLTINKCVPVSKCDTTHSSVSCLEMDVPIDLSKKCLSQSERTTTSPKRLLDYHECTVCKISFNKVENYLAHKQNFCPVTAHQRNDLGQLDGKVFPNPESERNSPDVSYERSIIKCEKNGNLKQPSPNGNLFSSHLATLQGLKVFSEAAQLIATKEENRHLFLPQCLYPGAIKKAKGADQLSPYYGIKPSDYISGSLVIHNTDIEQSRNAENESPKGQASSNGCAALKKDSLPLLPKNRGMVIVNGGLKQDERPAANPQQENISQNPQHEDDHKSPSWISENPLAANENVSPGIPSAEEQLSSIAKGVNGSSQAPTSGKYCRLCDIQFNNLSNFITHKKFYCSSHAAEHVK
B4: ZFPM2 (FOG2) p.S210T variant, Myc-DDK-tagged (protein, UniProt Q8WW38-1 1-1151)
chain: MSRRKQSKPRQIKRPLEDAIEDEEEECPSEETDIISKGDFPLEESFSTEFGPENLSCEEVEYFCNKGDDEGIQETAESDGDTQSEKPGQPGVETDDWDGPGELEVFQKDGERKIQSRQQLPVGTTWGPFPGKMDLNNNSLKTKAQVPMVLTAGPKWLLDVTWQGVEDNKNNCIVYSKGGQLWCTTTKAISEGEELIAFVVDFDSRLQAATQMTLTEGMYPARLLDSIQLLPQQAAMASILPTAIVNKDIFPCKSCGIWYRSERNLQAHLMYYCSGRQREAAPVSEENEDSAHQISSLCPFPQCTKSFSNARALEMHLNSHSGVKMEEFLPPGASLKCTVCSYTADSVINFHQHLFSHLTQAAFRCNHCHFGFQTQRELLQHQELHVPSGKLPRESDMEHSPSATEDSLQPATDLLTRSELPQSQKAMQTKDASSDTELDKCEKKTQLFLTNQRPEIQPTTNKQSFSYTKIKSEPSSPRLASSPVQPNIGPSFPVGPFLSQFSFPQDITMVPQASEILAKMSELVHRRLRHGSSSYPPVIYSPLMPKGATCFECNITFNNLDNYLVHKKHYCSSRWQQMAKSPEFPSVSEKMPEALSPNTGQTSINLLNPAAHSADPENPLLQTSCINSSTVLDLIGPNGKGHDKDFSTQTKKLSTSSNNDDKINGKPVDVKNPSVPLVDGESDPNKTTCEACNITFSRHETYMVHKQYYCATRHDPPLKRSASNKVPAMQRTMRTRKRRKMYEMCLPEQEQRPPLVQQRFLDVANLNNPCTSTQEPTEGLGECYHPRCDIFPGIVSKHLETSLTINKCVPVSKCDTTHSSVSCLEMDVPIDLSKKCLSQSERTTTSPKRLLDYHECTVCKISFNKVENYLAHKQNFCPVTAHQRNDLGQLDGKVFPNPESERNSPDVSYERSIIKCEKNGNLKQPSPNGNLFSSHLATLQGLKVFSEAAQLIATKEENRHLFLPQCLYPGAIKKAKGADQLSPYYGIKPSDYISGSLVIHNTDIEQSRNAENESPKGQASSNGCAALKKDSLPLLPKNRGMVIVNGGLKQDERPAANPQQENISQNPQHEDDHKSPSWISENPLAANENVSPGIPSAEEQLSSIAKGVNGSSQAPTSGKYCRLCDIQFNNLSNFITHKKFYCSSHAAEHVK
B5: ZFPM2 (FOG2) p.L335V variant, Myc-DDK-tagged (protein, UniProt Q8WW38-1 1-1151)
chain: MSRRKQSKPRQIKRPLEDAIEDEEEECPSEETDIISKGDFPLEESFSTEFGPENLSCEEVEYFCNKGDDEGIQETAESDGDTQSEKPGQPGVETDDWDGPGELEVFQKDGERKIQSRQQLPVGTTWGPFPGKMDLNNNSLKTKAQVPMVLTAGPKWLLDVTWQGVEDNKNNCIVYSKGGQLWCTTTKAISEGEELIAFVVDFDSRLQAASQMTLTEGMYPARLLDSIQLLPQQAAMASILPTAIVNKDIFPCKSCGIWYRSERNLQAHLMYYCSGRQREAAPVSEENEDSAHQISSLCPFPQCTKSFSNARALEMHLNSHSGVKMEEFLPPGASVKCTVCSYTADSVINFHQHLFSHLTQAAFRCNHCHFGFQTQRELLQHQELHVPSGKLPRESDMEHSPSATEDSLQPATDLLTRSELPQSQKAMQTKDASSDTELDKCEKKTQLFLTNQRPEIQPTTNKQSFSYTKIKSEPSSPRLASSPVQPNIGPSFPVGPFLSQFSFPQDITMVPQASEILAKMSELVHRRLRHGSSSYPPVIYSPLMPKGATCFECNITFNNLDNYLVHKKHYCSSRWQQMAKSPEFPSVSEKMPEALSPNTGQTSINLLNPAAHSADPENPLLQTSCINSSTVLDLIGPNGKGHDKDFSTQTKKLSTSSNNDDKINGKPVDVKNPSVPLVDGESDPNKTTCEACNITFSRHETYMVHKQYYCATRHDPPLKRSASNKVPAMQRTMRTRKRRKMYEMCLPEQEQRPPLVQQRFLDVANLNNPCTSTQEPTEGLGECYHPRCDIFPGIVSKHLETSLTINKCVPVSKCDTTHSSVSCLEMDVPIDLSKKCLSQSERTTTSPKRLLDYHECTVCKISFNKVENYLAHKQNFCPVTAHQRNDLGQLDGKVFPNPESERNSPDVSYERSIIKCEKNGNLKQPSPNGNLFSSHLATLQGLKVFSEAAQLIATKEENRHLFLPQCLYPGAIKKAKGADQLSPYYGIKPSDYISGSLVIHNTDIEQSRNAENESPKGQASSNGCAALKKDSLPLLPKNRGMVIVNGGLKQDERPAANPQQENISQNPQHEDDHKSPSWISENPLAANENVSPGIPSAEEQLSSIAKGVNGSSQAPTSGKYCRLCDIQFNNLSNFITHKKFYCSSHAAEHVK

These binders were tested against GATA-binding protein 4 (GATA4), wild-type, HA-tagged (human) (UniProt P43694) (assay: co-IP; HEK293-T cells co-transfected with wild-type GATA4-HA and ZFPM2-Myc-DDK (wild-type or variant); Pierce IP lysis buffer; IP with rabbit anti-HA overnight at 4°C, protein A/G plus agarose, PBS washes; Western blot of the IP with anti-ZFPM2).

binding, binds:
B1, B2, B3, B4, B5
